Assay results published in the supplement of paper PMC10331698.
± gives the standard deviation of the averaged measurements. Small differences around the control level are noise.

Tests used:
Assay in all cases: level (log10 ratio to DMSO vehicle control); higher = higher biomarker level / cell amount than vehicle control
[1] = compound: O=C(O)C(F)(F)C(F)(F)C(F)(F)F [Perfluorobutanoic acid]; settings: 2200 nM; in DMSO
Description: (§1)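 BioMAP Diversity Plus panel of 12 human primary cell co-culture systems (3C, 4H, LPS, SAg, BT, BF4T, BE3C, CASM3C, HDF3CGF, KF3CT, MyoF, Mphg). Compounds were added 1 h before stimulation and left for 24 h (MyoF 48 h; BT 72 h for soluble read-outs or 6 d for IgG). Biomarkers were read by ELISA, cytotoxicity by SRB, PBMC viability and proliferation by Alamar Blue. Each well value was divided by the mean of 8 DMSO control wells on the same plate and log10 transformed; duplicate blinded samples were tested at 4 concentrations.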

[2] = compound: FC(F)C(F)(F)COCC1CO1 [((2,2,3,3-Tetrafluoropropoxy)methyl)oxirane]; settings: 2200 nM; in DMSO
Description: as §1

[3] = compound: O=S(=O)(Cl)C(F)(F)C(F)(F)C(F)(F)C(F)(F)C(F)(F)C(F)(F)C(F)(F)C(F)(F)F [Perfluoro-1-octanesulfonyl chloride]; settings: 2200 nM; in DMSO
Description: as §1

[4] = compound: O=C(O)C(F)(F)OC(F)(F)C(F)(F)OC(F)(F)C(F)(F)C(F)(F)C(F)(F)F [Perfluoro-3,6-dioxadecanoic acid]; settings: 2200 nM; in DMSO
Description: as §1

[5] = compound: FC(F)(F)C(F)(F)C(F)(F)C(F)(F)C(F)(F)C(F)(F)C(F)(F)CCI [1-Iodo-1H,1H,2H,2H-perfluorononane]; settings: in DMSO
Description: as §1

[6] = compound: O=C(O)C(F)(F)C(F)(F)C(F)(F)C(F)(F)C(F)(F)C(F)(F)C(F)(F)C(F)(F)C(F)(F)C(F)(F)F [Perfluoroundecanoic acid]; settings: in DMSO
Description: as §1

[7] = compound: O=C(O)C(F)(F)OC(F)(F)C(F)(F)OC(F)(F)C(=O)O [Perfluoro-3,6-dioxaoctane-1,8-dioic acid]; settings: 2200 nM; in DMSO
Description: as §1

[8] = compound: NC(=O)C(F)(F)C(F)(F)C(F)(F)C(F)(F)C(F)(F)C(F)(F)C(F)(F)F [Perfluorooctanamide]; settings: 2200 nM; in DMSO
Description: as §1

[9] = compound: O=C(O)C=CC(F)(C(F)(F)F)C(F)(F)F [3-(Perfluoroisopropyl)-2-propenoic acid]; settings: in DMSO
Description: as §1

[10] = compound: O=P(O)(O)CCC(F)(F)C(F)(F)C(F)(F)C(F)(F)C(F)(F)C(F)(F)C(F)(F)C(F)(F)F [((Perfluorooctyl)ethyl)phosphonic acid]; settings: 2200 nM; in DMSO
Description: as §1

[11] = compound: FC(F)(F)C(F)(F)C(F)(F)C(F)(F)C(F)(F)C(F)(F)C(F)(F)I [1-Iodopentadecafluoroheptane]; settings: in DMSO
Description: as §1

[12] = compound: C=C(C)C(=O)OCC(F)(F)C(F)(F)C(F)(F)F [2,2,3,3,4,4,4-Heptafluorobutyl methacrylate]; settings: 2200 nM; in DMSO
Description: as §1

[13] = compound: O=C(O)C(F)(F)C(F)(F)C(F)(F)C(F)(F)C(F)(F)C(F)(F)C(F)(F)C(F)F [9-H-Perfluorononanoic acid]; settings: 2200 nM; in DMSO
Description: as §1

[14] = compound: O=C(O)C(F)(F)C(F)(F)OC(F)(F)F [Perfluoro-3-methoxypropanoic acid]; settings: 2200 nM; in DMSO
Description: as §1

[15] = compound: OCC(F)(F)C(F)(F)C(F)(F)C(F)(F)C(F)(F)C(F)(F)C(F)(F)C(F)(F)C(F)(F)C(F)(F)C(F)(F)F [11:1 Fluorotelomer alcohol]; settings: in DMSO
Description: as §1

[16] = compound: OCCC(F)(F)C(F)(F)C(F)(F)C(F)(F)C(F)(F)C(F)(F)C(F)(F)C(F)(F)F [8:2 Fluorotelomer alcohol]; settings: 2200 nM; in DMSO
Description: as §1

[17] = compound: C=CC(=O)OCC(F)(F)C(F)(F)C(F)(F)C(F)(F)COC(=O)C=C [1H,1H,6H,6H-Perfluorohexane-1,6-diol diacrylate]; settings: 2200 nM; in DMSO
Description: as §1

[18] = compound: O=C(O)C(F)(F)C(F)(F)F [Perfluoropropanoic acid]; settings: 2200 nM; in DMSO
Description: as §1

Test System	level (log10) [1]	level (log10) [2]	level (log10) [3]	level (log10) [4]	level (log10) ([5]; 740 nM)	level (log10) ([5]; 2200 nM)	level (log10) ([5]; 6700 nM)	level (log10) ([5]; 20000 nM)	level (log10) ([6]; 740 nM)	level (log10) ([6]; 2200 nM)	level (log10) [7]	level (log10) [8]	level (log10) ([9]; 2200 nM)	level (log10) ([9]; 6700 nM)	level (log10) ([9]; 20000 nM)	level (log10) ([9]; 60000 nM)	level (log10) [10]	level (log10) ([11]; 740 nM)	level (log10) ([11]; 2200 nM)	level (log10) ([11]; 6700 nM)	level (log10) ([11]; 20000 nM)	level (log10) [12]	level (log10) [13]	level (log10) [14]	level (log10) ([15]; 370 nM)	level (log10) ([15]; 1100 nM)	level (log10) ([15]; 3300 nM)	level (log10) ([15]; 10000 nM)	level (log10) [16]	level (log10) [17]	level (log10) [18]
LPS:sPGE2	-0.007 ± 0.03	-0.0345 ± 0.026	0.011 ± 0.055	-0.007 ± 0.016	-0.0175 ± 0.046	0.0225 ± 0.015	-0.0095 ± 0.0021	-0.03 ± 0.017	-0.026 ± 0.031	-0.031 ± 0.0057	0.0015 ± 0.0092	-0.027 ± 0.069	0.01 ± 0.035	0.01 ± 0.065	0.046 ± 0.023	0.0575 ± 0.025	0.0115 ± 0.0078	0.007 ± 0.051	0.032 ± 0.027	-0.062 ± 0.013	-0.103 ± 0.027	0.057 ± 0.03	0.0065 ± 0.039	-0.0165 ± 0.096	0.117 ± 0.036	0.151 ± 0.075	0.212 ± 0.0064	0.211 ± 0.044	-0.021 ± 0.018	0.0155 ± 0.059	-0.0035 ± 0.0021
CASM3C:CD106/VCAM-1	-0.022 ± 0.023	0.0095 ± 0.019	0.001 ± 0.024	0.0185 ± 0.0021	-0.0035 ± 0.005	-0.008 ± 0.014	-0.019 ± 0.0099	-0.0645 ± 0.012	-0.0215 ± 0.021	-0.047 ± 0.027	0.022 ± 0.071	-0.0205 ± 0.0078	0.007 ± 0.034	-0.0315 ± 0.013	-0.015 ± 0.0014	-0.0045 ± 0.071	0.0095 ± 0.09	0.01 ± 0.035	-0.023 ± 0.013	-0.0125 ± 0.005	-0.019 ± 0.034	0.0125 ± 0.011	-0.021 ± 0.021	0.007 ± 0.054	-0.012 ± 0.0071	-0.004 ± 0.024	0 ± 0.023	-0.0105 ± 0.019	-0.036 ± 0.028	-0.0285 ± 0.025	-0.001 ± 0.038
KF3CT:IL-1alpha	0.0205 ± 0.028	0.0085 ± 0.021	-0.0125 ± 0.025	0.0025 ± 0.04	0.036 ± 0.018	-0.0025 ± 0.005	-0.01 ± 0.0071	0.019 ± 0.047	0.005 ± 0.0071	-0.003 ± 0.0028	0.016 ± 0.0071	0.0085 ± 0.011	0.0065 ± 0.0035	-0.0025 ± 0.0064	0.0025 ± 0.0092	0.001 ± 0.017	0.0305 ± 0.00071	-0.005 ± 0.0071	-0.001 ± 0.011	-0.006 ± 0.0042	-0.004 ± 0.0071	0.001 ± 0.028	0.024 ± 0.027	0.0045 ± 0.0064	-0.012 ± 0.025	0.0015 ± 0.028	-0.0425 ± 0.0064	-0.021 ± 0.011	-0.011 ± 0.02	-0.007 ± 0.016	0.025 ± 0.088
SAg:CCL2/MCP-1	0.007 ± 0.0071	-0.0135 ± 0.044	0.0015 ± 0.0092	-0.024 ± 0.025	0.003 ± 0.02	-0.02 ± 0.017	-0.0145 ± 0.0078	-0.0025 ± 0.049	0.0015 ± 0.037	-0.0075 ± 0.0064	-0.0035 ± 0.026	0 ± 0.014	-0.0135 ± 0.026	-0.003 ± 0.0042	-0.0005 ± 0.016	-0.0055 ± 0.0064	-0.0025 ± 0.021	-0.0095 ± 0.042	-0.015 ± 0.024	0.02 ± 0.05	0.0105 ± 0.033	-0.0045 ± 0.049	-0.006 ± 0.03	-0.007 ± 0.021	0.019 ± 0.021	0.0095 ± 0.0078	-0.013 ± 0.044	0.0225 ± 0.039	0.018 ± 0.03	-0.0015 ± 0.088	-0.005 ± 0.011
